Strings that start with PEPTIDE1 are HELM notation: dots part the residues, brackets hold end groups and non-standard residues.
Assay: general procedure: Fmoc solid-phase peptide synthesis; Fmoc-Lys(Boc)-Wang resin (substitution 0.72 mmol/g); 0.5M HBTU/0.5M HOBT/2M DIEA in NMP
Conditions: whole synthesis, scale 0.08 mmol, TFA salt; acetic salt after lyophilization from 2% acetic acid

Work on “PEPTIDE1{R.G.R.K.V.V.R.R.K.K}|PEPTIDE2{R.G.R.K.V.V.R.R}$PEPTIDE1,PEPTIDE2,9:R3-8:R2$$$V2.0” yielded a crude yield of 90%, an isolated mass of 50 mg and an isolated yield of 27%.

— patent US9220264B2 (Singapore Health Services Pte Ltd., priority 2008, dated 2015)
